# Results: paper PMC3320885 (PLoS ONE, 2012)
# System: Src or Abl
# Experiment: Inhibitor fluorescence increase on binding to kinase
# Set-up: species or system human
# Settings: excitation 350 nm, relative to free ligand
compound,measurement,value
COc1cc(Nc2c(C#N)cnc3cc(OCCCN4CCN(C)CC4)c(OC)cc23)c(Cl)cc1Cl [bosutinib],increase in fluorescence intensity at 480 nm upon binding,~10 fold
COc1cc2c(Nc3cc(Cl)c(OC)c(Cl)c3)c(C#N)cnc2cc1OCCCN1CCN(C)CC1 [bosutinib isomer],increase in fluorescence intensity at 480 nm upon binding,~500 fold
